Data from patent US20250084405.

Chains of the proteins cited; added tags and fusions are not shown. A line that says so, or that is headed by a name, gives the form on record, which may keep a tag or linker.
MYC:MAX heterodimer (c-MYC / MAX) (Homo sapiens), one chain, as listed by the source, chain 2 of 2: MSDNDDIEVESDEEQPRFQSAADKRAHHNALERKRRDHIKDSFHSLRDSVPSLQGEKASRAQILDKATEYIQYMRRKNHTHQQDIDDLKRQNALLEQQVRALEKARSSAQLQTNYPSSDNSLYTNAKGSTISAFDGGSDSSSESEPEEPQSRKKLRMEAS
MYC:MAX heterodimer (c-MYC / MAX) (Homo sapiens), one chain, as listed by the source, chain 1 of 2: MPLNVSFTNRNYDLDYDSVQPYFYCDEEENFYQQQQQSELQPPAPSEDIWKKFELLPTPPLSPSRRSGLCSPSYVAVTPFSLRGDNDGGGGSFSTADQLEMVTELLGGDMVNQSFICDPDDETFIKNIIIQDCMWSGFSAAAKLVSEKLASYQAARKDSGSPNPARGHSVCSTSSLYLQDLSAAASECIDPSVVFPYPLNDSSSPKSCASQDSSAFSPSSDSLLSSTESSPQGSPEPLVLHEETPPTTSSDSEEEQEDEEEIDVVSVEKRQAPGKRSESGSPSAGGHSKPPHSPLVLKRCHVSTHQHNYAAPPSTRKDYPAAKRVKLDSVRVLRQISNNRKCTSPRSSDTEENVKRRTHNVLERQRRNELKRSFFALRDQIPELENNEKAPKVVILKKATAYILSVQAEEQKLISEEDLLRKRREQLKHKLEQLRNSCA

Test system: MYC:MAX heterodimer (c-MYC / MAX) (Homo sapiens)
Experiment: EMSA
Conditions: 7.5 nM probe, 90-100 ug translated protein, protein translated in vitro, label: IRDye 700

Row | Sequence | binding result (binding abolished by unlabeled competitor, variant of FGF7 5' UTR wild-type probe) | binding result (complex observed only with mutated probe)
1 | CACACAAGCACACACGTGCTCACACACAGAGAG (double strand) [FGF7 5' UTR mutant probe (E-box CACGTG)] | binds | –
2 | CACACAAGCACACACGCGCTCACACACAGAGAG (double strand) [FGF7 5' UTR wild-type probe] | – | no binding

The exact form of at least one protein or probe is not confirmed. No signal at the amounts used counts as a negative.
